Measured values reported in the supplement of paper PMC8256030.
Several values for one entry are separate records, joined by “and”; a condition that tells them apart may be missing. Equal values may be shown once. Some of the results follow. Repeats in this data set agree poorly, so a single value says little.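 HEK293T cells were given each compound shortly before transfection with a reporter in which red mCherry is followed by the SARS-CoV-2 frameshift element and then GFP in the −1 frame, so GFP appears only after frameshifting.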

Key:
[1] = system: SARS-CoV-2 -1 PRF reporter mCherry-FSE-GFP(-1); assay: mCherry (red) intensity as percent of control; higher = higher upstream reporter expression; conditions: 10 µM; 24 h; HEK293T
[2] = system: SARS-CoV-2 -1 PRF reporter mCherry-FSE-GFP(-1); assay: percent effect, decrease of GFP/mCherry ratio (-1 PRF reporter) relative to controls; higher = stronger frameshift inhibition; conditions: 10 µM; 24 h; HEK293T

Row | Structure (SMILES) | mCherry [1] | percent effect [2]
1 | C[C@]12C=CC(=O)C=C1CC[C@@H]1[C@@H]2[C@@H](O)C[C@@]2(C)[C@H]1CC[C@]2(O)C(=O)CO [prednisolone] | 93.7% and 97.1% and 111% | -6.87% and 0.104% and -5.13%
2 | Nc1ccc(S(=O)(=O)[O-])cc1.Nc1ccc(S(=O)(=O)[O-])cc1.O.O.O.O.[Zn+2] | 113% | -3.75%
3 | N[C@@H](CSCC(=O)O)C(=O)O [carbocisteine] | 84.4% | -11.3%
4 | CC1NC(=O)COC1c1ccccc1 (stereo not drawn) [fenmetramide] | 111% | -16.4%
5 | COc1ccc(C(=O)Nc2ccccc2CCC2CCCCN2C)cc1 (stereo not drawn) [encainide] | 96.7% | -2.12%
6 | CCOC(=O)c1nc(=O)c2cc3cc(OC)c(OC)cc3nc2[nH]1 [pirolate] | 95.4% | -1.02%
7 | Clc1cc(-c2ccccc2)ccc1OCCCN1CCOCC1 [chlordimorine] | 87.5% | -4.85%
8 | NCCc1cnc[nH]1 | 118% | -4.85%
9 | CCC(C)(C)c1ccc(OCCCCCCN2CCN(c3ccc(C)c(Cl)c3)CC2)cc1 [teroxalene] | 39% | -12.8%
10 | Cc1ccc(S(=O)(=O)NC(=O)NC2CCCCC2)cc1 [glycyclamide] | 102% | -6.75%
11 | COc1ccc(CC2c3cc(OC)c(OC)cc3CC[N+]2(C)CCC(=O)OCCCCCOC(=O)CC[N+]2(C)CCc3cc(OC)c(OC)cc3C2Cc2ccc(OC)c(OC)c2)cc1OC (stereo not drawn) [atracurium besilate] | 76.6% and 92.8% | -5.05% and -8.81%
12 | C=C1c2c(Cl)ccc(O)c2C(O)=C2C(=O)[C@]3(O)C(O)=C(C(N)=O)C(=O)[C@@H](N(C)C)[C@@H]3[C@@H](O)[C@H]12.O=C(O)c1cc(S(=O)(=O)O)ccc1O | 91.6% | 0.698%
13 | CO[C@H]1O[C@H](COS(=O)(=O)O)[C@@H](O[C@@H]2O[C@@H](C(=O)O)[C@@H](O[C@H]3O[C@H](COS(=O)(=O)O)[C@@H](O[C@@H]4O[C@H](C(=O)O)[C@@H](O[C@H]5O[C@H](COS(=O)(=O)O)[C@@H](O)[C@H](O)[C@H]5NS(=O)(=O)O)[C@H](O)[C@H]4O)[C@H](OS(=O)(=O)O)[C@H]3NS(=O)(=O)O)[C@H](O)[C@H]2OS(=O)(=O)O)[C@H](O)[C@H]1NS(=O)(=O)O [Fondaparinux sodium] | 73% | -1.35%
14 | CO[C@H]1C[C@@H]2CC[C@@H](C)[C@@](O)(O2)C(=O)C(=O)N2CCCC[C@H]2C(=O)O[C@H]([C@H](C)C[C@@H]2CC[C@@H](OCCO)[C@H](OC)C2)CC(=O)[C@H](C)/C=C(\C)[C@@H](O)[C@@H](OC)C(=O)[C@H](C)C[C@H](C)/C=C/C=C/C=C/1C [Everolimus] | 101% | 0.662%
15 | O=C(NCCCN1CCOCC1)c1ccc(Cl)cc1 [eprobemide] | 89% | -0.921%
16 | Nc1ccc(/N=N/c2ccccc2)c(N)n1 | 108% | -2.72%
17 | C/C(=C\c1csc(C)n1)[C@@H]1C[C@@H]2O[C@]2(C)CCC[C@H](C)[C@H](O)[C@@H](C)C(=O)C(C)(C)[C@@H](O)CC(=O)N1 [ixabepilone] | 100% | -12.2%
18 | NCc1ccc(S(N)(=O)=O)cc1 [mafenide] | 127% | 2.97%
19 | NCCCC[C@H](N[C@@H](CCc1ccccc1)C(=O)O)C(=O)N1CCC[C@H]1C(=O)O [lisinopril] | 90.8% | -2.4%
20 | CC(=O)OC[C@H]1O[C@@H](n2ccc(=O)[nH]c2=O)[C@H](OC(C)=O)[C@@H]1OC(C)=O [Uridine triacetate] | 96.6% | -5.19%
21 | O=C1C(=O)c2ccccc2C(O)=C1C1CCC(c2ccc(Cl)cc2)CC1 (stereo not drawn) | 96.4% | -8.69%
22 | O=C(O)Cc1ccccc1Oc1ccc(Cl)cc1Cl [fenclofenac] | 52.1% | -1.44%
23 | O=C(OCCOCCO)c1ccccc1Nc1cccc(C(F)(F)F)c1 [etofenamate] | 93.7% | 0.64%
24 | N=C(N)NC(=O)c1nc(Cl)c(N)nc1N [amiloride] | 85.5% | -8.64%
25 | Cc1c(C(=O)NCCO)[n+]([O-])c2ccccc2[n+]1[O-] [olaquindox] | 71.8% | -4.81%
26 | Clc1ccccc1C(c1ccccc1)(c1ccccc1)n1ccnc1 [clotrimazole] | 59.8% | -14.9%
27 | CNC(=O)CN(CCN(CCN(CC(=O)[O-])CC(=O)NC)CC(=O)[O-])CC(=O)[O-].[Gd+3] [Omniscan] | 117% | -4.03%
28 | S=c1[nH]cnc2nc[nH]c12 | 120% | -1.5%
29 | CC(C)C(=O)Nc1ccc([N+](=O)[O-])c(C(F)(F)F)c1 [flutamide] | 101% and 87% | -2.38% and -13.6%

Looked up above:
`COc1ccc(CC2c3cc(OC)c(OC)cc3CC[N+]2(C)CCC(=O)OCCCCCOC(=O)CC[N+]2(C)CCc3cc(OC)c(OC)cc3C2Cc2ccc(OC)c(OC)c2)cc1OC` (stereo not drawn) [atracurium besilate] – percent effect [2]: -5.05% and -8.81%
`Nc1ccc(S(=O)(=O)[O-])cc1.Nc1ccc(S(=O)(=O)[O-])cc1.O.O.O.O.[Zn+2]` – mCherry [1]: 113%
